We go through two substances from paper PMC10724265.

Amino acid sequences for entries named in this document (tags omitted).
UniProt Q9H6L5: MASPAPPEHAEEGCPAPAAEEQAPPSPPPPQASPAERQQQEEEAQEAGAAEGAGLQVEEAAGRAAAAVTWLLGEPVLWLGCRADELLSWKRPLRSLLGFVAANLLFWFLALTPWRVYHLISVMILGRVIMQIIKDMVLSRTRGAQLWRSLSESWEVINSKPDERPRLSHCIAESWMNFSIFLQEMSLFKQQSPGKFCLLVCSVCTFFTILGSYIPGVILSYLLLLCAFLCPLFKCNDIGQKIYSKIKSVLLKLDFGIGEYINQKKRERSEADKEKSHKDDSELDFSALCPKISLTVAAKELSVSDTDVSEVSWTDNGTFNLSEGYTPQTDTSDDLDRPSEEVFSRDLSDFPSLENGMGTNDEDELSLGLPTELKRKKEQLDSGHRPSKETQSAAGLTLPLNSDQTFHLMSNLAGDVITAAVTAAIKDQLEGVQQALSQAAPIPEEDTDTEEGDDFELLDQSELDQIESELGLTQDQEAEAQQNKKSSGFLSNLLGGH

Assay [1] concerns the target V1-FAM134B and V2-FAM134B (split Venus / half GFP fusions of FAM134B) (UniProt Q9H6L5). The experiment in a line: split reporter; bimolecular complementation affinity purification (BiCAP): V1- and V2-tagged copies co-transfected in HEK293T, reconstituted GFP precipitated with GFP-Trap beads from RIPA lysate; cells treated 6 h under basal, Torin1 or Torin1 + CK2 inhibitor conditions.

Assay [2] deals with V1-FAM134C and V2-FAM134C (split Venus / half GFP fusions of FAM134C) (UniProt Q86VR2). Described as above.

Results are given in words; binding and its absence hold for the method and conditions named. Binding seen in cells or lysates may run through a third protein. Some binding calls cover weakened binding; strength is not graded here.

Regarding “V1-FAM134B and V2-FAM134B (split Venus / half GFP fusions of FAM134B) (from UniProt Q9H6L5 1-497)”, the binding entry in assay [1] is on record as “binds”.
Regarding “V1-FAM134C and V2-FAM134C (split Venus / half GFP fusions of FAM134C) (from UniProt Q86VR2 1-466)”, the binding entry in assay [2] is recorded as “binds”.
